Assay results published in the supplement of paper PMC3334620.
The full ranking holds about 33,000 sequences; the median of “E-score (-0.5 to 0.5)” is about -8e-05, and the highest 2% start at about 0.23. The list shows a part of the results.

target: T1, Nrg2 (UniProt P38082); experiment: PBM E-score (8-mer binding enrichment) (E-score (-0.5 to 0.5)); higher = stronger / more preferred TF binding; settings: protein concentration: 100 nM; construct: GST-full length
T1 sequence: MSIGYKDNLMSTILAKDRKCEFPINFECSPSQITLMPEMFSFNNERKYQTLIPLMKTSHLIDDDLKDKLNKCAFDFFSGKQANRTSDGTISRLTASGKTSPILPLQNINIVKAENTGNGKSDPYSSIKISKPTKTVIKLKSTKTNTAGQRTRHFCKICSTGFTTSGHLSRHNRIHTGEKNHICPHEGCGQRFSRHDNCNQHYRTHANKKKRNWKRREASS
Procedure, shortened: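 Full-length yeast transcription factors or their DNA-binding domains, GST-tagged and expressed with PURExpress, were applied at about 100-200 nM to universal all-10-mer Agilent arrays. These arrays had been made double-stranded by primer extension on fresh or once-stripped slides. Detection used fluorescent anti-GST, normalisation used masliner, and E-scores for ungapped eight-base words pooled with reverse complements came from the Universal PBM Analysis Suite.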

| Sequence | PBM E-score |
| --- | --- |
| CACCTGCC | 0.0283 |
| ACAGAATC | 0.00693 |
| AGATGTAT | 0.0916 |
| TATATTAA | 0.234 |
| ACTGCGAC | 0.0437 |
| AAACGAGG | -0.0504 |
| ACCGCTAG | -0.1 |
| CTAGGTAA | -0.139 |
| AACTTGTC | 0.00668 |
| CAGTAGCG | -0.0548 |
| TAACTCGA | 0.294 |
| ACACGTGA | 0.0954 |
| ACGCATTG | 0.00161 |
| CTGCAAAA | 0.0323 |
| CGCCAGAG | 0.037 |
| ATTAGAAT | 0.161 |
| AACGCGAT | 0.0868 |
| ATTACAGC | -0.18 |
| CCGAGATC | 0.068 |
| CAGAACCA | -0.061 |
| AAAAGATG | -0.0369 |
| GATCGTAA | -0.0753 |
| CAAGGTTC | -0.224 |
| CCCAACTC | 0.256 |
| GACAAGAA | 0.149 |

| Sequence | PBM E-score |
| --- | --- |
| AAAACCTT | -0.145 |
| CATGGGCC | -0.055 |
| GACGTCGC | -0.0786 |
| TACCAGTA | 0.00025 |
| CTATCCTC | -0.108 |
| ATATCGGC | 0.0719 |
| GGAAGTAC | 0.0716 |
| GTGCTGAA | -0.0741 |
| ACCGACGA | -0.149 |
| GTCCCGAC | 0.0418 |
| CATTAGGA | -0.0947 |
| TATTAAAA | 0.262 |
| GAAGACTC | -0.26 |
| GGTCGTAC | -0.0518 |
| GGGTGGAA | -0.0943 |
| ACCGCGGT | 0.0747 |
| AGGTAGAT | -0.104 |
| ATATATCC | 0.221 |
| CCCTTCCG | -0.0483 |
| CATTTACC | -0.0104 |
| AGCATGAG | -0.0535 |
| CGTTTCAG | 0.134 |
| CACAGTCA | -0.00342 |
| ACGTACCC | -0.127 |
| AATATGTG | 0.182 |

| Sequence | PBM E-score |
| --- | --- |
| CCTTATAA | 0.122 |
| CGTCAAAG | -0.149 |
| CGAAAACG | 0.0034 |
| CATTCATC | 0.0561 |
| GTGTGGGA | 0.00314 |
| TCAGCGGA | 0.0444 |
| CGGATGGA | 0.061 |
| GCCTTATA | 0.0159 |
| AATGATCT | 0.162 |
| AGCATACC | -0.0188 |
| CAGGCATC | -0.119 |
| CCAAAAGC | -0.0969 |
| AGGATTAT | -0.0837 |
| ATCGAACC | 0.186 |
| ACAACTCG | 0.115 |
| ACAGTACC | -0.11 |
| GAAGTTCA | 0.127 |
| AACCGCGC | 0.221 |
| ACTTTCGC | -0.0735 |
| AACCAGGT | -0.244 |
| AGGGCCGC | -0.0367 |
| GAAACAAA | 0.207 |
| CTAGCTAG | 0.111 |
| CGATGCGA | 0.114 |
| AGGTGGAG | -0.218 |

| Sequence | PBM E-score |
| --- | --- |
| AGACGACC | 0.0156 |
| AATTCTCA | 0.0717 |
| AGCGACCT | -0.0964 |
| GCTAGTCC | -0.199 |
| AAAGAAAG | 0.17 |
| AATAGCAT | 0.159 |
| AGCTCTGA | -0.199 |
| CCGGTTGA | -0.0151 |
| ATTTCTCG | 0.285 |
| TGCAAAAA | 0.182 |
| GGGGATTA | 0.164 |
| ATCGTGGC | -0.181 |
| AGGAGCGC | -0.0981 |
| GGCTGATA | 0.0866 |
| GAATTACC | -0.0941 |
| GGCTGCCC | -0.183 |
| GTACGGAC | 0.105 |
| ACGAGCGG | -0.066 |
| GCGCCAGC | -0.229 |
| CAACCAGC | 0.0587 |
| ATCCCGGA | 0.0243 |
| ACAGGGGG | -0.213 |
| AAATGGAT | 0.114 |
| CGAGTATC | -0.0715 |
| ACGTACCT | -0.262 |

| Sequence | PBM E-score |
| --- | --- |
| CCTCACGC | 0.0353 |
| CAATTCAC | 0.0554 |
| TGAGCACA | -0.019 |
| AATTCCGT | 0.0895 |
| CCCCGACA | -0.124 |
| ACGCATGA | 0.0145 |
| CGGTGCAA | -0.0138 |
| ACCAAGTC | 0.111 |
| CTCACCAG | -0.0488 |
| TGCCGCAA | 0.123 |
| TATGAGAA | 0.148 |
| AGGAACAT | -0.0445 |
| AGAAACTA | -0.121 |
| CTCAGCTA | -0.144 |
| GATCAATA | 0.181 |
| ATAATTCG | 0.109 |
| CAAGTAGC | 0.0513 |
| CGTCCACG | -0.157 |
| AGCTTTTA | 0.0375 |
| CGGGCTAC | -0.0936 |
| CTAACTGA | -0.00324 |
| TGTACTAA | -0.0646 |
| GCGACGCA | -0.123 |
| GCGTGGAC | -0.213 |
| CGTGTCTA | 0.0309 |

| Sequence | PBM E-score |
| --- | --- |
| ACCATGGA | -0.172 |
| ACGCGAAC | -0.0106 |
| GTGGTCAA | 0.00864 |
| GAAATACA | -0.0218 |
| CGAGATAC | 0.163 |
| AGTGGGCA | -0.00862 |
| AGTCCACC | 0.0447 |
| CTCTGGGA | -0.237 |
| AAGAAGAG | 0.0586 |
| ACGGGTCC | 0.167 |
| ACAACTGG | 0.163 |
| TTCTAGAA | -0.227 |
| ACATCTCA | 0.0805 |
| ATTACCAG | 0.0678 |
| ATAAGACG | -0.124 |
| TATCCTGA | 0.202 |
| ACCGCGCG | 0.301 |
| CGTGACTC | -0.263 |
| ATCAAAAA | 0.237 |
| GATATCCA | 0.166 |
| CGTCACAC | -0.0186 |
| CAGCAGGG | 0.0602 |
| CCCTCCAC | -0.11 |
| AACATTAG | -0.129 |
| TACAAAAA | 0.0653 |

| Sequence | PBM E-score |
| --- | --- |
| GCACAGGC | -0.0223 |
| CAGACGGC | -0.16 |
| AGCAGGCG | -0.0267 |
| CGGGCCGC | -0.0506 |
| GACGTTGA | 0.1 |
| ATACCGGC | -0.0758 |
| CTGTTTAA | 0.0598 |
| AATCGCAA | 0.184 |
| TAAGCTAA | 0.0275 |
| AGTACGGG | -0.133 |
| CACATCTG | -0.12 |
| CTTTCGGC | -0.246 |
| CCTTCGTA | -0.0483 |
| AAGTAAAC | -0.00204 |
| GTCGCCAC | -0.297 |
| ATGGATAC | 0.0111 |
| AAACAAAG | 0.135 |
| TCTGGTAA | 0.0843 |
| CCACACCA | 0.0946 |
| GAGAGGCA | -0.0439 |
| AGGCACCG | -0.194 |
| AGAACTCT | 0.00451 |
| GTACCGAC | -0.208 |
| CGTGGCAA | -0.177 |
| TCATTTAA | -0.0144 |

| Sequence | PBM E-score |
| --- | --- |
| CGATAGTC | -0.0541 |
| ACGAGTGC | -0.0866 |
| ACTAAACC | -0.0137 |
| CCCACCTA | -0.144 |
| ATCGGCTA | 0.0602 |
| TATAACGA | 0.0366 |
| CAGAATCC | 0.0658 |
| CCGTTGAA | -0.153 |
| CATATAGC | 0.00177 |
| GCGTAACC | -0.0731 |
| CGCCACCA | -0.188 |
| ATGGTTAC | -0.0938 |
| ACAGTAAA | 0.0343 |
| AAGGGCAG | -0.0721 |
| CGACTTAC | -0.132 |
| GGATTGGA | 0.0101 |
| GGCAATTA | 0.103 |
| GAGTGACC | -0.0155 |
| CTGCAGGA | 0.14 |
| CATACACG | 0.0277 |
| CCATAAAC | -0.0309 |
| GTAAGCGA | 0.00506 |
| AGGCGGTA | -0.259 |
| CGAGCTCA | 0.108 |
| CAGGTAAG | -0.142 |

For convenience, some entries already given.

| Sequence | PBM E-score |
| --- | --- |
| ATGGTTAC | -0.0938 |
| ACAGTAAA | 0.0343 |
| AAGGGCAG | -0.0721 |
| CGACTTAC | -0.132 |
| GGATTGGA | 0.0101 |
| GGCAATTA | 0.103 |

A different layout for some results above:
CGACTTAC
  PBM E-score: -0.132
GGATTGGA
  PBM E-score: 0.0101
GGCAATTA
  PBM E-score: 0.103
GAGTGACC
  PBM E-score: -0.0155

More entries

| Sequence | PBM E-score |
| --- | --- |
| AATAGCGT | 0.0503 |
| GAATGACA | -0.0127 |
| TCCGAGAA | -0.0407 |
| GGTCCCAC | -0.0409 |
| GGGTGGCA | -0.0143 |
| CCAGGCGG | 0.0432 |
| CGACCCGA | -0.0884 |
| AAGAATGT | 0.107 |
| AGACGCGC | 0.0845 |
| AGGTCGAA | 0.145 |
| CAGCGAAA | -0.0452 |
| AGGACGCC | -0.145 |
| CTAATCAA | 0.216 |
| CGTCTAAC | -0.0775 |
| ATTAAGGC | 0.0412 |
| CACTTTAC | -0.0431 |
| GGTTACGA | 0.0861 |
| ATGGGGTG | -0.013 |
| GTGGCCTA | -0.0216 |

Some of the entries so far, bar-delimited:
Sequence | PBM E-score
GAATGACA | -0.0127
GGGTGGCA | -0.0143
AAGAATGT | 0.107
AGACGCGC | 0.0845
CACTTTAC | -0.0431
ATGGGGTG | -0.013
